Results are given in words; binding and its absence hold for the method and conditions named. For some assays here: Binding seen in cells or lysates may run through a third protein. Some binding calls cover weakened binding; strength is not graded here.

Amino acid sequences for entries named in this document (tags omitted). Residues count along the entry.
UniProt Q9HC16: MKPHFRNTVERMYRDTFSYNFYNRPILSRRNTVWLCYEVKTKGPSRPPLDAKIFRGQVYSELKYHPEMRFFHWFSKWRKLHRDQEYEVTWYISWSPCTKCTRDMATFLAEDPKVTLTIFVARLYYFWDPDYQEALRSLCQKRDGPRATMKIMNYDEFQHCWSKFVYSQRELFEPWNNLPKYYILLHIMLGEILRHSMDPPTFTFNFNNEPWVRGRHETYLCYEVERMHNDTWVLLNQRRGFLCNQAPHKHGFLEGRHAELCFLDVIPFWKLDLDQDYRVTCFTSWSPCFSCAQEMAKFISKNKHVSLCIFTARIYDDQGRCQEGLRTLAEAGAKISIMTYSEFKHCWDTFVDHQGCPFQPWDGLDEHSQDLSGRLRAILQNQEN
UniProt Q99IB8, residues 1031-1661: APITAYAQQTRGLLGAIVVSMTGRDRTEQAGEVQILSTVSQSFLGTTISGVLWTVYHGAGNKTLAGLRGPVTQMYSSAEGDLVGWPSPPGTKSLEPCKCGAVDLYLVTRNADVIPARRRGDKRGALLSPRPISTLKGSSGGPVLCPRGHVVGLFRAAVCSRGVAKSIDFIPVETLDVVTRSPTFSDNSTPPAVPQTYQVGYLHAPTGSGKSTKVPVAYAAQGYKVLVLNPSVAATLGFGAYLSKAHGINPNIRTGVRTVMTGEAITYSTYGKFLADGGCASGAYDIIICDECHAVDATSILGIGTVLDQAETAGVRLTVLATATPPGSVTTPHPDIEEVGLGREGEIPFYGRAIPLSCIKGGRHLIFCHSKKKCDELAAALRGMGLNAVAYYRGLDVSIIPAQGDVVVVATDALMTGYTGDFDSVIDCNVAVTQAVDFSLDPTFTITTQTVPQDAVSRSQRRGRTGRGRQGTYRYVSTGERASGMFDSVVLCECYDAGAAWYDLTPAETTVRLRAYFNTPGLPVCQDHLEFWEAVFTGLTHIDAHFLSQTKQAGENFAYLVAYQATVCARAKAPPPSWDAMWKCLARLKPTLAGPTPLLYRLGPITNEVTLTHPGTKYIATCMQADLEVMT

In assay [1] the target is full length wild-type hA3G fused with an HA tag at the C-terminus (hA3G-HA), in lysate of transfected Huh7.5 cells (human) (UniProt Q9HC16). Description: co-IP; lysate of HCV-infected Huh7.5 cells transfected with phA3G-HA; HA-specific antibody 16 hrs at 4°C, Protein A Agarose, washed 4 times with DPBS; western blot with anti-NS3.
Assay [2] addresses purified hA3G-HA (human) (UniProt Q9HC16). The assay is described as follows: SPR; BIAcore T100; purified hA3G-HA immobilised on CM5 chip (NHS/EDC); NS3-His injected at 0.3, 0.6, 1.2 or 3 μM in HBS-EP+ buffer; both purified. In general terms: SPR reads the build-up and loss of mass on a sensor chip optically.

For “HCV non-structural protein NS3, from HCV-infected Huh7.5 cells (from UniProt Q99IB8 1031-1661)”, the binding entry in assay [1] is “binds”. Turning to “full-length HCV NS3 with His tag at the C-terminus (NS3-His), purified (from UniProt Q99IB8 1031-1661)”, the binding entry in assay [2] is recorded as “binds”.
